Assay results: PubChem BioAssay AID2685 (National Center for Advancing Translational Sciences (NCATS), 2010)
This is one part of the list. Shown are side measurements of this screen, not its main read-out; they come without a call. The list favours compounds with an active or inconclusive main result. Potencies come from curve fits of mixed quality, noted in brackets.

Assay: qHTS Assay for Lipid Storage Modulators in Drosophila S3 Cells;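 as to cell number change: cells counted by Cell Tracker Red CMTPX staining in the red channel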
Settings: BODIPY lipid droplet fluorescence, 18-24 h; for cell number change: measured here: cell count max response, cells fed with added oleic acid
Outline: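 Drosophila S3 cells loaded with oleic acid (400 uM, as added) and compounds at several concentrations; lipid droplets imaged by 488-nm laser-scanning cytometry, 500–530 nm intensity and object ratio to cell channel. Percent activity normalized to 20 uM Triacsin C.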

[1] = measured here: lipid fluorescence (Fed channel) AC50, cells fed with added oleic acid
[2] = measured here: cell number channel AC50, cells fed with added oleic acid

| Compound | cell number change | AC50 [1] | AC50 [2] |
| --- | --- | --- | --- |
| Nc1ccc(NC(=O)c2cccs2)c(Cl)c1 | 21.1% | 16.4 µM [rising, single point] | – |
| O=C(c1ccc(S(=O)(=O)Nc2ccccc2F)cc1)N1CCCC1 | 21.5% | – | – |
| O=C(c1csc2c1CCCC2)N1CCCCC1 | -5.24% | 16.4 µM [falling, partial curve] | – |
| CC(=O)Nc1ccc(S(=O)(=O)N(Cc2cc3ccc(C)cc3[nH]c2=O)CC2CCCO2)cc1 (stereo not given) | -2.95% | – | – |
| Cc1ccc(-n2nnc3ccccc3c2=O)cc1C | 7.41% | 2.59 µM [rising, full curve] | – |
| CC(CCc1ccccc1)N1CCN(Cc2ccccc2)CC1 (stereo not given) | -24.6% | – | 0.231 µM [falling, full curve, poor fit] |
| CCSc1ncnc2c1oc1ccccc12 | -5.39% | 4.11 µM [rising, full curve] | – |
| Cc1ccc(S(=O)(=O)Nc2ccc(N3CCCCC3)cc2)cc1 | -6.15% | – | – |
| CCC(CO)Oc1cc(NC(=O)c2ccc(C)cc2)c2ncn(C(C)C)c2c1 (stereo not given) | 10.7% | 0.58 µM [falling, single point] | – |
| NC(=O)CC(NC(=O)Cc1cccc2ccccc12)c1ccc(N2CCc3ccccc3C2)c([N+](=O)[O-])c1 (stereo not given) | 16.6% | 13 µM [rising, single point] | – |
| CC(C(=O)N1CCCCC1)N(C)CC(=O)Nc1cccc(F)c1 (stereo not given) | -12.6% | 0.164 µM [falling, full curve, poor fit] | – |
| COCCN(CCOC)c1nc(-c2ccc(Cl)cc2)nc2ccccc12 | 8.78% | 1.3 µM [falling, full curve] | – |
| Cc1ccc(CN2CCN(CC(=O)O)C2=O)cc1 | 11.9% | 0.0206 µM [rising, full curve, poor fit] | – |
| CCCc1cc(=O)oc2c3c(cc(OCC(=O)NCC4CCC(C(=O)O)CC4)c12)OC(C)(C)CC3 (stereo not given) | -18.1% | 3.66 µM [falling, single point] | – |
| CC(=O)c1ccc(OCC(=O)Nc2c(C)nn(-c3ccccc3)c2C)cc1 | – | 6.51 µM [rising, single point] | – |
| Oc1[nH]c2ccccc2c1N=Nc1nc2ccccc2s1 | – | 6.51 µM [rising, single point] | – |
| Clc1ccc(-c2nnc(-c3ccco3)nc2N2CCCCC2)cc1 | – | 4.11 µM [rising, single point] | – |
| C/C(=N\OC(=O)C1CC1)C1CC1c1ccc(F)cc1 (stereo not given) | -42.2% | – | – |
| O=[N+]([O-])c1ccc2nonc2c1Nc1ccccc1 | -7.42% | 29.1 µM [falling, single point] | – |
| CC(C)C(NC(=O)c1ccco1)C(=O)OCC(=O)c1ccccc1 (stereo not given) | 3.54% | 29.1 µM [rising, single point] | – |
| Cc1cc(C)n(C(=O)N(c2ccccc2)c2ccccc2)n1 | -13.5% | 29.1 µM [rising, single point] | – |
| O=C(c1cnn(C(=O)c2ccccc2)c1)c1ccccc1O | 24.2% | 13 µM [rising, single point] | – |

| Compound | cell number change | AC50 [1] | AC50 [2] |
| --- | --- | --- | --- |
| O=S(=O)(c1ccc(Cl)s1)N1CCN(CCc2ccccc2)CC1 | 16.8% | – | – |
| O=C(Nc1nc(-c2ccccn2)cs1)c1ccc2c(c1)OCCO2 | -50.6% | 6.51 µM [falling, single point] | 14.6 µM [falling, partial curve] |
| Cc1nc2sc(C(c3cccs3)N3CCN(c4ccccc4)CC3)c(O)n2n1 (stereo not given) | 2.94% | 5.8 µM [falling, single point] | 6.51 µM [falling, single point] |
| O=C(C1CCN(S(=O)(=O)c2cccs2)CC1)N1CCCC(C(F)(F)F)C1 (stereo not given) | -1.17% | – | – |
| Cc1ccc(/C=C/C(=O)O)cc1S(=O)(=O)NCCO | -63% | – | 18.4 µM [falling, single point] |
| COc1cc(S(=O)(=O)N2CCN(c3ccccc3)CC2)ccc1F | -25.5% | 29.1 µM [falling, single point] | – |
| COc1ccc(C(=O)Nc2nc3c(s2)Cc2cc(OC)ccc2-3)cc1 | -15.8% | 0.00651 µM [falling, full curve, poor fit] | – |
| O=C(NCc1cccs1)c1ccccc1 | 37.1% | – | 14.6 µM [rising, single point] |
| O=Nc1ccc(NOC(=O)c2ccccc2Br)cc1 | 2.93% | 3.26 µM [rising, partial curve, poor fit] | – |
| CC(C)(C)c1cc(NC(=O)COC(=O)c2ccc(O)cc2O)n(-c2ccccc2)n1 | 231% | 29.1 µM [rising, partial curve] | 29.1 µM [rising, single point] |
| NC(=S)NN=C(c1ccccc1)c1ccccc1 | 22.5% | 25.9 µM [rising, single point] | – |
| Cc1c(CN2CCC(CO)(CC3CCCCO3)CC2)cnn1C (stereo not given) | -14.5% | – | – |
| CCCc1nnc(NC(=O)Nc2ccc(OC)cc2)s1 | -43.1% | 32.6 µM [falling, partial curve, poor fit] | 29.1 µM [falling, single point] |
| COc1c(Cl)ccc(Cl)c1C(=O)NC(=S)N1CCOCC1 | -16.9% | 0.082 µM [falling, single point] | 0.0731 µM [falling, full curve, poor fit] |
| COc1ccc(CNC(=O)CN(Cc2ccc(OC)cc2)C(=O)CCC(=O)Nc2nccs2)cc1 | -12.8% | – | 0.146 µM [falling, full curve, poor fit] |
| O=C(CNS(=O)(=O)c1cccc(Cl)c1)Nc1ccc(-c2nc3ccccc3s2)cc1 | -10.3% | 0.92 µM [falling, full curve, poor fit] | – |
| O=C(O)CCCCCCNC(=O)c1cncc(O)c1 | 11.3% | – | – |
| CC(C)C(c1nnnn1C1CCCC1)N1CCOCC1 (stereo not given) | 9.11% | – | 4.61 µM [rising, single point] |
| O=C(Cc1cccs1)Nc1nnc(SCc2ccc(C(F)(F)F)cc2)s1 | -34.4% | 16.4 µM [falling, single point] | 18.4 µM [falling, single point] |
| CCOc1cnc(-c2c(-c3c(F)cccc3Cl)noc2C)o1 | -15.4% | – | – |
| Fc1ccc(CN2CC[C@H]3C=CCc4cccc(c43)C2)cc1 | -53.5% | – | 20.6 µM [falling, partial curve] |
| O=C(CSc1n[nH]c(-c2ccccc2)n1)Nc1ccccc1O | 7.33% | – | – |

Sorted by SMILES length (rising): 14 of the compounds above.

| Compound | cell number change | AC50 [1] | AC50 [2] |
| --- | --- | --- | --- |
| O=C(NCc1cccs1)c1ccccc1 | 37.1% | – | 14.6 µM [rising, single point] |
| NC(=S)NN=C(c1ccccc1)c1ccccc1 | 22.5% | 25.9 µM [rising, single point] | – |
| O=C(O)CCCCCCNC(=O)c1cncc(O)c1 | 11.3% | – | – |
| CC(C)C(c1nnnn1C1CCCC1)N1CCOCC1 (stereo not given) | 9.11% | – | 4.61 µM [rising, single point] |
| CCCc1nnc(NC(=O)Nc2ccc(OC)cc2)s1 | -43.1% | 32.6 µM [falling, partial curve, poor fit] | 29.1 µM [falling, single point] |
| Cc1ccc(/C=C/C(=O)O)cc1S(=O)(=O)NCCO | -63% | – | 18.4 µM [falling, single point] |
| CCOc1cnc(-c2c(-c3c(F)cccc3Cl)noc2C)o1 | -15.4% | – | – |
| O=C(CSc1n[nH]c(-c2ccccc2)n1)Nc1ccccc1O | 7.33% | – | – |
| Fc1ccc(CN2CC[C@H]3C=CCc4cccc(c43)C2)cc1 | -53.5% | – | 20.6 µM [falling, partial curve] |
| O=C(Nc1nc(-c2ccccn2)cs1)c1ccc2c(c1)OCCO2 | -50.6% | 6.51 µM [falling, single point] | 14.6 µM [falling, partial curve] |
| O=C(Cc1cccs1)Nc1nnc(SCc2ccc(C(F)(F)F)cc2)s1 | -34.4% | 16.4 µM [falling, single point] | 18.4 µM [falling, single point] |
| Cc1nc2sc(C(c3cccs3)N3CCN(c4ccccc4)CC3)c(O)n2n1 (stereo not given) | 2.94% | 5.8 µM [falling, single point] | 6.51 µM [falling, single point] |
| O=C(C1CCN(S(=O)(=O)c2cccs2)CC1)N1CCCC(C(F)(F)F)C1 (stereo not given) | -1.17% | – | – |
| O=C(CNS(=O)(=O)c1cccc(Cl)c1)Nc1ccc(-c2nc3ccccc3s2)cc1 | -10.3% | 0.92 µM [falling, full curve, poor fit] | – |

Continuation:

| Compound | cell number change | AC50 [1] | AC50 [2] |
| --- | --- | --- | --- |
| CC1CCCN(CCC(=O)Nc2ccc(F)c(F)c2)C1 (stereo not given) | 9.52% | 1.64 µM [rising, partial curve] | – |
| COc1ccc(OCCNC(=O)c2ccccc2OCC(=O)Nc2ccc(NC(C)=O)cc2)cc1 | -2.49% | 4.61 µM [rising, single point] | – |
| CC(C)NC(=O)c1c(O)c2ccccc2[nH]c1=O | 3.77% | 10.3 µM [rising, partial curve] | – |
| Cn1c(=O)c2cc(S(=O)(=O)NC(Cc3ccccc3)C(=O)NCC3CCCO3)ccc2n(C)c1=O (stereo not given) | 23% | 29.1 µM [rising, single point] | – |
| CCOC(=O)c1c(CC(C)C)csc1NC(=O)COC(=O)c1cc(OC)c(OC)cc1[N+](=O)[O-] | 4.45% | 4.11 µM [falling, single point] | – |
| Cc1ccc(-n2c(SCC(=O)Nc3ccc4c(c3)OCCO4)nnc2-c2ccco2)cc1 | -0.638% | 0.651 µM [rising, full curve] | – |
| NS(=O)(=O)c1cccnc1Nc1c(Cl)cccc1Cl | -9.59% | – | – |
| CCCC1(c2ccccc2)NC(=O)N(CC(=O)Nc2cc(C)on2)C1=O (stereo not given) | 54.1% | 6.51 µM [falling, single point] | – |
| COc1cccc(C(=O)NCCSc2ccc(F)cc2)c1 | -32.6% | 29.1 µM [falling, single point] | – |
| Cc1ccc(S(=O)(=O)NNC(=O)Cc2cccn2C)cc1 | – | 4.11 µM [rising, partial curve, poor fit] | 5.8 µM [rising, partial curve, poor fit] |
| Cc1cc2oc(=O)c3c(c2cc1OCc1nn[nH]n1)CCCC3 | -0.967% | – | – |
| Cc1c(C2OC(=O)C3(CCCCC3)C(=O)C2(C)C)c(=O)n(-c2ccccc2)n1C (stereo not given) | -19.6% | – | – |
| CC1(C)OC(c2ccccc2)=C/C(=C\C=N\NC(=O)c2ccncc2)O1 | 29.4% | – | – |
| O=C(COc1ccc(Cl)cc1Cl)N(Cc1ccco1)C1CCS(=O)(=O)C1 (stereo not given) | 0.404% | 0.13 µM [falling, full curve, poor fit] | – |
| COc1ccccc1-c1cc(C(=O)N/N=C/c2ccoc2)c2ccccc2n1 | – | 0.0231 µM [rising, full curve, poor fit] | – |
| Cc1cccc(CC(=O)N2CCOCC2)c1 | 3.44% | 3.66 µM [rising, full curve] | – |
| CCOc1ccccc1NC(=O)CCn1ccnc1 | 38.3% | 29.1 µM [rising, single point] | 16.4 µM [rising, single point] |
| CCCCNC(=O)CCCn1c(=O)c2ccccc2n(CC(=O)NCCC2=CCCCC2)c1=O | -0.802% | 16.4 µM [rising, single point] | – |
| CN(Cc1ccon1)C(=O)C1CCN(C2CCN(CCCc3ccccc3)CC2)CC1 | 0.867% | – | – |
| O=C1CSC(=S)N1Cc1cccnc1 | 13.3% | 16.4 µM [rising, partial curve] | – |
| CCCCn1c(SCC(=O)N2CCN(c3ccccc3)CC2)nc2ccsc2c1=O | -26.9% | – | 0.731 µM [falling, full curve, poor fit] |
| CCOC(=O)c1c(-c2ccccc2)oc2ccc(OCC)cc12 | 20.2% | 8.2 µM [rising, partial curve] | – |
